Assay results: PubChem BioAssay AID1347076 (National Center for Advancing Translational Sciences (NCATS), 2019)
About 13,000 (3.2%) of roughly 400,000 compounds were called active. The inconclusive results got no clear call from the source; some entries with a clear call stand among them for comparison. Calls follow the shape of the dose curve; as a rule, active = well fitted cell-killing curve with a large enough effect; inconclusive = small, poorly fitted or top-dose-only effect, or effect the other way; inactive = flat fitted curve, though single readings scatter. A potency beside an inconclusive call is a rough fit, not a confirmed value.
% is scaled to controls: 0 for no effect and ±100 for the full control effect; potency is read from the fitted curve at half-maximal effect.

Assay: qHTS assay for MDR1-selective chemotherapeutics: Primary screen using the drug-selected MDR subline cells KB-V1; also: nearly all actives have a fitted effect of over 60% in size
Settings: KB-V1 MDR cells viability, CellTiter-Glo, 72 h; activity change, negative = cytotoxicity: at 46.1 µM (top of the series)
Outline: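 qHTS viability screen in drug-selected KB-V1 MDR cells: 72 h compound treatment at 37 degrees C, ATP luminescence end point.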
For `CC(C)CC1C(=O)N(Cc2cn(CCC3OCCO3)nn2)CCS(=O)(=O)N1Cc1ccc(-c2ccc(Cl)c(Cl)c2)cc1` (stereo not given), the “activity change, negative = cytotoxicity” value was inactive: 1.43%. In the case of `CCN(C(=O)COC(=O)c1ccc2ccccc2c1)c1c(N)n(Cc2ccccc2)c(=O)[nH]c1=O`, the “activity change, negative = cytotoxicity” value was inactive: 17.2%. For `C(=N\Nc1nc2ccccc2[nH]1)/c1cccc2nccnc12`, the Potency was inconclusive: 4.11 µM [cytotoxic, full curve]. For `Cc1ccc(NS(=O)(=O)c2cc(C(=O)N3CCOCC3)ccc2C)cc1`, the Potency was inconclusive: 29.1 µM [cytotoxic, single point]. In the case of `CC(C)N(C(=O)CSc1n[nH]c(=O)n1CCc1ccccc1)C(C)C`, the “activity change, negative = cytotoxicity” value was inactive: -29.8%. In the case of `O=C(Cn1ncc2c3ccccc3n(Cc3ccc(Cl)cc3)c2c1=O)NCc1cccs1`, the Potency was inconclusive: 29.1 µM [rising, single point]. With `CC(Sc1nc(N)cc(=O)[nH]1)C(=O)NCC(=O)Nc1ccc(F)c(F)c1F` (stereo not given) the Potency was inconclusive: 20.6 µM [rising, partial curve]. For `c1ccc(-c2nnc(SCc3nc4ccccc4[nH]3)n2Cc2ccco2)cc1`, the Potency was inconclusive: 16.4 µM [cytotoxic, partial curve, poor fit]. For `Cc1cccc(Nc2nc(N)nc(CN3CCN(c4ccccc4F)CC3)n2)c1`, the Potency was active: 2.31 µM. With `OCCN1CCN(C(=S)c2ccc(Cl)cc2)CC1` the “activity change, negative = cytotoxicity” value was inactive: 2.17%. For `CC(C)(C)C(=O)Nc1ccccc1N1CCN(c2ccc(F)cc2)CC1`, the Potency was inconclusive: 14.6 µM [cytotoxic, partial curve, poor fit]. With `CCOc1ccc(Sc2cc(C(=O)NC(C)CC)c3ccccc3n2)cc1` (stereo not given) the “activity change, negative = cytotoxicity” value was inactive: 0%. For `CC(C)(C)NC(=O)C1(C)CCC(=O)N1C1CCN(Cc2ccccc2)CC1` (stereo not given), the Potency was inconclusive: 29.1 µM [cytotoxic, single point]. With `COc1cc(NC(=O)c2cccc([N+](=O)[O-])c2C)ccc1NC(=O)c1ccco1` the Potency was inconclusive: 8.2 µM [cytotoxic, partial curve, poor fit]. For `CC1(c2ccccc2)CC(C)(C)N(C(=O)CSc2nnc(N)s2)c2ccccc21` (stereo not given), the Potency was active: 16.4 µM. For `O=C(Cn1cnc2c(cnn2-c2ccc(Cl)cc2)c1=O)NC1CCCCC1`, the Potency was inconclusive: 14.6 µM [rising, partial curve, poor fit]. With `COCCn1c(=NC(=O)CN2C(=O)CCC2=O)sc2cc(S(N)(=O)=O)ccc21` the Potency was inconclusive: 2.06 µM [rising, partial curve, poor fit]. In the case of `Cc1ccc(C2(C)NC(=O)N(CC(=O)Nc3cc(S(=O)(=O)N(C)C)ccc3C)C2=O)cc1` (stereo not given), the Potency was inconclusive: 25.9 µM [rising, single point]. With `COc1ccc(C(CNC(=O)c2oc3ccc(C)cc3c2C)N2CCCCC2)cc1` (stereo not given) the Potency was inconclusive: 23.1 µM [cytotoxic, single point]. In the case of `COc1cc(/C=N/Nc2ccc(S(N)(=O)=O)cc2[N+](=O)[O-])cc(OC)c1O`, the “activity change, negative = cytotoxicity” value was inactive: 13.5%. With `Cc1ccc(Cn2c(C)c(C(=O)NCc3ccccc3C(F)(F)F)sc2=O)cc1` the Potency was inconclusive: 18.4 µM [cytotoxic, single point]. For `C#CNC(=O)C1(CC=C)CCNCC1`, the Potency was inconclusive: 6.51 µM [cytotoxic, full curve]. For `NC(=O)C1CCN(C(=O)CNC(=O)c2ccc(Br)o2)CC1`, the Potency was inconclusive: 29.1 µM [rising, single point]. In the case of `COC(=O)c1cc([N+](=O)[O-])c(-n2cncn2)c([N+](=O)[O-])c1`, the “activity change, negative = cytotoxicity” value was inactive: -28.8%. With `CCC(=O)N(C)C[C@H]1Oc2ncc(C#Cc3cccnc3)cc2C(=O)N([C@@H](C)CO)C[C@@H]1C` the “activity change, negative = cytotoxicity” value was inactive: 3.66%. With `CCCCNS(=O)(=O)c1ccc(NC(=O)C(Sc2ccccc2)c2ccccc2)cc1` (stereo not given) the Potency was inconclusive: 23.1 µM [cytotoxic, single point]. With `COCCn1c(SCCOc2ccccc2)nc2ccccc2c1=O` the Potency was inconclusive: 7.31 µM [cytotoxic, partial curve]. In the case of `CNC(=S)NNC(=O)c1ccccc1Cl`, the Potency was inconclusive: 29.1 µM [rising, single point]. In the case of `COc1ccc(CCN(Cc2cccs2)S(=O)(=O)c2ccc(C(=O)O)cc2)cc1OC`, the Potency was inconclusive: 29.1 µM [rising, single point]. With `COc1ccccc1NC(=O)c1oc2ccccc2c1NC(=O)c1ccccc1C(F)(F)F` the Potency was inconclusive: 23.1 µM [cytotoxic, partial curve, poor fit]. In the case of `CCCCNC(=O)C(NC(=O)c1ccc(-c2ccccc2)cc1)C(=O)c1ccccc1` (stereo not given), the “activity change, negative = cytotoxicity” value was inactive: -7.19%. For `CCCCCCN1C[C@@H](O)[C@H](n2cc(C3CC3)nn2)C[C@@H]1c1ccc(Cl)cc1`, the “activity change, negative = cytotoxicity” value was inactive: 0%. In the case of `CCC(CC)C(=O)N(C)c1c(C)nc2c(OCc3ccc(Cl)cc3Cl)cccn12`, the Potency was inconclusive: 20.6 µM [cytotoxic, single point]. With `CCOC(=O)N1CCN(C(=O)C[C@@H]2C[C@@]3(C(=O)OCC)CCC=C3N(Cc3ccc4c(c3)OCO4)C2=O)CC1` the “activity change, negative = cytotoxicity” value was inactive: -2.22%. In the case of `CCOc1ccccc1NC(=O)C(C)Sc1nc(-c2ccccc2)c(C#N)c(=O)[nH]1` (stereo not given), the Potency was inconclusive: 18.4 µM [rising, single point]. In the case of `S=C(NCC1CCCCC1)Nc1cccnc1`, the Potency was inconclusive: 32.6 µM [cytotoxic, partial curve, poor fit]. With `Cc1c(Cl)sn(-c2ccc(Cl)cc2)c1=O` the Potency was inconclusive: 16.4 µM [cytotoxic, partial curve, poor fit]. In the case of `O=C(NC(=S)N1CCN(C/C=C/c2ccccc2)CC1)c1ccc(F)cc1`, the Potency was inconclusive: 32.6 µM [cytotoxic, single point]. In the case of `CCC(=O)Nc1ccc(C(=O)CSc2nc3ccc(C)cc3[nH]2)cc1`, the “activity change, negative = cytotoxicity” value was inactive: -9.8%. In the case of `CN(C)C(C(=O)Nc1cc(Cl)cc(Cl)c1)c1ccccc1` (stereo not given), the “activity change, negative = cytotoxicity” value was inactive: -23.7%. With `Cc1ccc2[nH]cc(C(=O)CCl)c2c1` the Potency was inconclusive: 29.1 µM [cytotoxic, single point]. With `CCN1CCN(CCCNC(=O)CNC(=O)c2nn(-c3ccc(OC)cc3OC)c(=O)c3ccccc23)CC1` the “activity change, negative = cytotoxicity” value was inactive: 0.888%. For `CCc1nc2ccc(C(=O)NCCCN3CCCC3=O)cn2c1N(CC)Cc1cccc(Br)c1`, the “activity change, negative = cytotoxicity” value was inactive: -13.6%. For `O=C(c1ccc2[nH]c3c(c2c1)CCCC3)N1CCN(c2ccc(F)cc2)CC1`, the Potency was inconclusive: 18.4 µM [cytotoxic, partial curve]. For `Cc1ccc(S(=O)(=O)Nc2nc3ccccc3nc2N2CCc3ccccc3C2)cc1`, the Potency was inconclusive: 25.9 µM [cytotoxic, single point]. With `Cc1cc(C)c(NC2=CC(=O)CC(C)(C)C2)c(C#N)c1` the Potency was active: 23.1 µM. For `Cc1ccc(C)c(NC(=O)CCN2C(=O)c3ccccc3C2=O)c1`, the Potency was inconclusive: 29.1 µM [rising, single point]. For `O=S(=O)(N/N=C\c1cn(-c2ccccc2)nc1-c1ccccc1)c1ccccc1`, the Potency was inconclusive: 20.6 µM [cytotoxic, partial curve]. In the case of `CC1CCN(C(=O)/C(=C/c2ccccc2Cl)c2ccccc2)CC1`, the “activity change, negative = cytotoxicity” value was inactive: 0%. For `COc1ccc(CCNC2CCc3ccccc3C2)cc1` (stereo not given), the Potency was inconclusive: 1.03 µM [cytotoxic, partial curve, poor fit]. With `Cc1ccccc1C(=O)Nc1nnc(S(=O)(=O)N(C)Cc2ccc(Cl)cc2)s1` the “activity change, negative = cytotoxicity” value was inactive: 4.73%. With `COc1ccc(CNC(=O)COC(=O)c2n[nH]c3ccccc23)cc1OC` the “activity change, negative = cytotoxicity” value was inactive: -7.67%. In the case of `COc1ccc(-c2c(-c3ccccc3OC)sc3ccccc23)cc1OC`, the Potency was inconclusive: 29.1 µM [cytotoxic, single point]. With `CSCCC(NC(=O)c1ccccc1Cl)C(=O)NCCc1ccccn1` (stereo not given) the “activity change, negative = cytotoxicity” value was inactive: -7.59%. In the case of `N#Cc1ccccc1Cn1c(=O)n(CCCCC(=O)NCc2ccc3c(c2)OCO3)c(=O)c2ccccc21`, the “activity change, negative = cytotoxicity” value was inactive: -12.5%. With `CCC(CC)C(=O)Nc1cccc(C(=O)N2CCCCCC2)c1` the Potency was inconclusive: 23.1 µM [cytotoxic, single point]. For `CCCCNc1c(-c2cc3ccccc3o2)nc2nc(C)cc(C)n12`, the Potency was inconclusive: 11.6 µM [cytotoxic, partial curve]. With `O=C(NCCSCc1ccccc1Cl)C1CCN(S(=O)(=O)Cc2ccccc2)CC1` the “activity change, negative = cytotoxicity” value was inactive: -2.06%. In the case of `Cc1ccccc1N1CC(C(=O)Nc2ccc(S(=O)(=O)N3CCOCC3)cc2)CC1=O` (stereo not given), the Potency was inconclusive: 29.1 µM [rising, single point]. With `Cc1ccc(N(C(=O)CNC(=O)c2ccco2)C(C(=O)NC2CCCCC2)c2ccncc2)cc1F` (stereo not given) the “activity change, negative = cytotoxicity” value was inactive: -7.29%. In the case of `COc1ccc(S(=O)(=O)N2CCCCCC2)cc1C(=O)N(C)Cc1ccc(C(C)(C)C)cc1`, the Potency was inconclusive: 25.9 µM [cytotoxic, single point]. With `Cc1ccc(C)c(N2CCN(C(C(=O)NC3CCCC3)C(C)C)CC2)c1` (stereo not given) the Potency was inconclusive: 2.31 µM [cytotoxic, full curve]. In the case of `Cc1ccc(-c2nc(COC(=O)C3=NN(c4ccccc4)C(=O)CC3)cs2)cc1`, the Potency was inconclusive: 6.51 µM [rising, partial curve, poor fit]. In the case of `CCC(=O)Nc1ccc(-c2nn3c(C)nnc3s2)cc1C`, the “activity change, negative = cytotoxicity” value was inactive: -21.3%. In the case of `Cc1cccc(NC(=O)c2nc[nH]c2C(=O)N[C@@H](C)c2ccccc2)c1`, the “activity change, negative = cytotoxicity” value was inactive: -13.6%. In the case of `Fc1ccc(-c2csc(N3CCOCC3)n2)cc1`, the activity change, negative = cytotoxicity was inconclusive: -14.5%. For `COc1cccc(/C=N/Nc2nc3ccccc3n3cnnc23)c1O`, the Potency was active: 6.51 µM. With `COCCCN(C(=O)c1cc(Cl)nc2ccccc12)c1c(N)n(Cc2ccccc2)c(=O)[nH]c1=O` the activity change, negative = cytotoxicity was inconclusive: -3.26%. For `Cc1ccc(Cn2ncc(C)c2N)o1`, the “activity change, negative = cytotoxicity” value was inactive: 14.9%. With `O=C(O)c1cccc(S(=O)(=O)N(Cc2ccccc2)c2ccc(Cl)cc2)c1` the Potency was inconclusive: 2.06 µM [rising, partial curve, poor fit].
